{"source": "the supplement of paper PMC8256030", "note": "Values joined by “and” are separate entries in the source; they are usually repeats but may differ in a detail not shown here. Equal values may be shown once. The list shows a part of the results. This data set is noisy: repeats of one test often differ as much as different tests do.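 HEK293T cells were given each compound shortly before transfection with a reporter in which red mCherry is followed by the SARS-CoV-2 frameshift element and then GFP in the −1 frame, so GFP appears only after frameshifting.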"}
{"tested_on": "HEK293T", "test": "percent viability (nuclei count) relative to control; higher = more viable cells", "conditions": "10 µM; 24 h"}
{"smiles": "CC(=O)S[C@@H]1CC2=CC(=O)CC[C@]2(C)[C@H]2CC[C@@]3(C)[C@@H](CC[C@@]34CCC(=O)O4)[C@H]12", "note": "[spironolactone]", "percent viability": "181% and 183%"}
{"smiles": "CC(C(=O)O)c1ccc2c(c1)CC(=O)c1ccccc1S2", "note": "(stereo not given) [zaltoprofen]", "percent viability": "212%"}
{"smiles": "COc1ccc(C[C@H](N)C(=O)N[C@H]2[C@@H](O)[C@H](n3cnc4c(N(C)C)ncnc43)O[C@@H]2CO)cc1", "percent viability": "52.3%"}
{"smiles": "CN(C)CCOC(=O)COc1ccc(Cl)cc1", "note": "[meclofenoxate]", "percent viability": "103%"}
{"smiles": "CC1=C(/C=C/C(C)=C/C=C/C(C)=C/C=C/C=C(C)/C=C/C=C(C)/C=C/C2=C(C)C(=O)CCC2(C)C)C(C)(C)CCC1=O", "note": "[Canthaxanthin]", "percent viability": "322%"}
{"smiles": "CS(=O)(=O)NC(=O)CCC/C=C\\C[C@H]1C(=O)C[C@@H](O)[C@@H]1/C=C/[C@@H](O)COc1ccccc1", "note": "[sulprostone]", "percent viability": "67.9%"}
{"smiles": "NC(=O)[C@@H]1CCCN1C(=O)[C@H](Cc1c[nH]cn1)NC(=O)[C@@H]1CCC(=O)N1", "note": "[protirelin]", "percent viability": "165%"}
{"smiles": "O=S(=O)(O)c1cc(I)c(O)c2ncccc12", "note": "[chiniofon]", "percent viability": "94.4%"}
{"smiles": "O=C(O)Cc1ccccc1Nc1c(Cl)cccc1Cl", "note": "[diclofenac]", "percent viability": "246% and 146%"}
{"smiles": "C#CCN(C)CCCOc1ccc(Cl)cc1Cl", "note": "[clorgiline]", "percent viability": "273%"}
{"smiles": "Cc1cc(O)cc(C)c1Cl", "note": "[chloroxylenol]", "percent viability": "193%"}
{"smiles": "COC1=CC(=O)C[C@@H](C)[C@]12Oc1c(Cl)c(OC)cc(OC)c1C2=O", "percent viability": "168%"}
{"smiles": "CCN1CCCC(OC(=O)C(c2ccccc2)c2ccccc2)C1", "note": "(stereo not given) [piperidolate]", "percent viability": "251%"}
{"smiles": "COc1ccc2c(c1)c(CC(=O)OCC(=O)O)c(C)n2C(=O)c1ccc(Cl)cc1", "note": "[acemetacin]", "percent viability": "164% and 273%"}
{"smiles": "C[C@@H]1NC(=O)[C@@H](N)CNC(=O)[C@H](C2CCNC(=N)N2)NC(=O)/C(=C/NC(N)=O)NC(=O)[C@H](CNC(=O)CC(N)CCCN)NC1=O.N=C1NCC[C@H]([C@@H]2NC(=O)/C(=C/NC(N)=O)NC(=O)[C@H](CNC(=O)C[C@@H](N)CCCN)NC(=O)[C@H](CO)NC(=O)[C@@H](N)CNC2=O)N1", "note": "[Capreomycin]", "percent viability": "35.5%"}
{"smiles": "O=C(O)c1cc(O)c2c(c1)C(C1c3cc(C(=O)O)cc(O)c3C(=O)c3c(OC4OC(CO)C(O)C(O)C4O)cccc31)c1cccc(OC3OC(CO)C(O)C(O)C3O)c1C2=O", "note": "(stereo not given)", "percent viability": "215%"}
{"smiles": "CCCCCC1C(=O)N2C=C(c3ccccc3)c3ccccc3N2C1=O", "note": "(stereo not given) [cinnopentazone]", "percent viability": "94.2%"}
{"smiles": "C[C@@H]1C[C@H]2[C@@H]3CCC4=CC(=O)C=C[C@]4(C)[C@@]3(F)[C@@H](O)C[C@]2(C)[C@H]1C(=O)CO", "note": "[desoximetasone]", "percent viability": "196%"}
{"smiles": "Cc1[nH]c(C)c(Cl)c(=O)c1Cl", "percent viability": "166%"}
{"smiles": "Clc1ccccc1C(c1ccccc1)(c1ccccc1)n1ccnc1", "note": "[clotrimazole]", "percent viability": "63.8%"}
{"smiles": "CN(C)CCC(c1ccccc1)c1ccccn1", "note": "(stereo not given) [pheniramine]", "percent viability": "177%"}
{"smiles": "CCCCOc1ccc(C(=O)CCN2CCCCC2)cc1", "percent viability": "189% and 175%"}
{"smiles": "CCc1ncnc2cc(OC)c(OC)cc12", "note": "[quazodine]", "percent viability": "139%"}
{"smiles": "CC(C)OC(=O)[C@@H]1CC2=CC(=O)CC[C@]2(C)[C@H]2CC[C@@]3(C)[C@@H](CC[C@@]34CCC(=O)O4)[C@H]12", "note": "[dicirenone]", "percent viability": "126%"}
{"smiles": "N[C@@H](CCC(=O)O)C(=O)N[C@@H](Cc1c[nH]c2ccccc12)C(=O)O", "note": "[oglufanide]", "percent viability": "234%"}
{"smiles": "O=C(c1ccccc1)c1ccc2n1CCC2C(=O)O", "note": "(stereo not given) [ketorolac]", "percent viability": "224%"}
{"smiles": "CO[C@H]1C[C@H](O[C@@H]2/C(C)=C\\C[C@@H]3C[C@@H](C[C@]4(C=C[C@H](C)[C@@H](C(C)C)O4)O3)OC(=O)[C@@H]3C=C(C)[C@@H](O)[C@H]4OC/C(=C/C=C\\[C@@H]2C)[C@]43O)O[C@@H](C)[C@H]1O[C@H]1C[C@@H](OC)[C@H](NC(C)=O)[C@H](C)O1", "note": "[eprinomectin]", "percent viability": "59.2%"}
{"smiles": "CCCCc1cc2ccccc2c(OCCN(C)C)n1", "note": "[quinisocaine]", "percent viability": "116%"}
{"smiles": "O=C(O)[C@@H](S)[C@@H](S)C(=O)O", "note": "[succimer]", "percent viability": "151%"}
{"smiles": "NC[C@H]1O[C@H](O[C@H]2[C@H](O)[C@@H](O[C@H]3O[C@H](CO)[C@@H](O)[C@H](N)[C@H]3O)[C@H](N)C[C@@H]2N)[C@H](N)[C@@H](O)[C@@H]1O", "note": "[bekanamycin]", "percent viability": "263%"}
{"smiles": "Clc1ccc(C(c2ccccc2Cl)C(Cl)Cl)cc1", "note": "(stereo not given) [mitotane]", "percent viability": "159%"}
{"smiles": "Cc1cn[nH]c1", "note": "[fomepizole]", "percent viability": "256% and 184%"}
{"smiles": "Cc1ccc2nc(N)[nH]c(=O)c2c1Sc1ccncc1", "note": "[nolatrexed]", "percent viability": "324%"}
{"smiles": "CCN1CCC[C@H]1CNC(=O)c1cc(S(N)(=O)=O)ccc1OC", "note": "[levosulpiride]", "percent viability": "208%"}
{"smiles": "CC(C)C[C@H]1C(=O)O[C@H](Cc2ccc(N3CCOCC3)cc2)C(=O)N(C)[C@@H](CC(C)C)C(=O)O[C@H](C)C(=O)N(C)[C@@H](CC(C)C)C(=O)O[C@H](Cc2ccc(N3CCOCC3)cc2)C(=O)N(C)[C@@H](CC(C)C)C(=O)O[C@H](C)C(=O)N1C", "note": "[emodepside]", "percent viability": "194%"}
{"smiles": "CC(C)[C@H](NC(=O)[C@H](CC(=O)O)NC(=O)[C@H](CCCCN)NC(=O)[C@@H](N)CCCN=C(N)N)C(=O)N[C@@H](Cc1ccc(O)cc1)C(=O)O", "percent viability": "243%"}
{"smiles": "CN(C)CC(c1ccc(O)cc1)C1(O)CCCCC1", "note": "(stereo not given)", "percent viability": "63.3%"}
{"smiles": "CC(=O)CC(c1ccccc1)c1c(O)c2ccccc2oc1=O", "note": "(stereo not given) [warfarin]", "percent viability": "254%"}
{"smiles": "COc1c(-c2ccc3cc(NS(C)(=O)=O)ccc3c2)cc(-n2ccc(=O)[nH]c2=O)cc1C(C)(C)C", "note": "[Dasabuvir]", "percent viability": "285%"}
{"smiles": "CC#C[C@]1(O)CC[C@H]2[C@@H]3CCC4=CC(=O)CCC4=C3[C@@H](c3ccc(N(C)C)cc3)C[C@@]21C", "note": "[mifepristone]", "percent viability": "202% and 201%"}
